Screen size: about 31,000 sequences; about 1,400 (4.5%) were called active.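 Rule for the calls: active = median seed-adjusted z-score above 1 or below -1; inactive = the rest.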 Some of the results follow.
test: Novel Modifiers of Survival Motor Neuron (SMN) Protein: Gene Identification via Genome-wide siRNA Screen; settings: HEK293T SMN2-luciferase reporter, siRNA knockdown, 72 h; actives lie on both sides;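 note: luminescence tracks full-length SMN protein made from the SMN2 reporter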
In short: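 Genome-wide siRNA screen (10418 genes, 3 siRNAs each, 1 pmol per well) by reverse transfection in HEK293T cells stably carrying an SMN2-luciferase reporter; luminescence after 72 hours, normalized to negative-control siRNA, log10-transformed, MAD-scored.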

Sequence	median seed-adjusted z-score
CAAGCAGUACAACAAGUUUTT against UCKL1	inactive: 0.695
GGCUUUGACUGGGUGUAUUTT against IHH	inactive: 0.0642
CCUUAUAGUUCACACCUUATT against ZNF267	inactive: 0.381
AGAUAAGAAUCGCAUGACATT against ARHGAP9	inactive: 0
CGUUAUUCAUAAGAGGAUUTT against ZNF331	inactive: 0.415
GGUAAGAAGCUGUACGGAUTT against ZNF214	inactive: 0.467
CCAUAGCAGUAAUGAUACATT against GRIN3A	inactive: 0.241
GACUGAACUGAAUAACUGUTT against TRIM63	inactive: -0.376
CACAGAAUCUUAUCACAGUTT against IRF9	inactive: 0.114
GGAGCAAGCUUUAUUCGUUTT against MYO6	inactive: 0
GCAUUGAACAAAGCUAAAATT against CDC6	inactive: 0.0196
ACUUUGCAAUCGCUCAAAATT against NPTX1	inactive: -0.117
CGACAGUACUUUGCCCUAATT against TRIM39	inactive: 0.41
CAACGGAAGUGCUACUACUTT against FCER2	active: -1.75
AGGACAAUGUGGAUGGGCATT against REXO1	inactive: -0.748
GGAAUCCGAUUUUUCGAAATT against RAB13	inactive: -0.599
GCAUUUACCAGUGACCAUATT against FECH	inactive: 0.135
GGAUCGUGUUUAUGAAGAATT against MS4A2	inactive: 0.155
AGCCUGUUCUCAUCACCAUTT against TAPBP	inactive: -0.786
CCCGGUCAUUGGUGAUUCATT against DHTKD1	inactive: 0.591
GCGCCGUCAUGAAACAGUUTT against RBM14	inactive: -0.0317
CGGUGACUUCGCAAGCAAATT against POLR2J	inactive: 0.0437

Sequence	median seed-adjusted z-score
GCCUGAUAACGUAAUAACATT against ARSA	inactive: 0.0938
GGGUGAAUCCAGAGAACAATT against DND1	inactive: 0.157
ACCGCGACUUCAUCAAGAATT against EEF1A2	inactive: -0.64
CGUGGGAUGCUCAAAGAUATT against EZR	inactive: 0.0344
CCAUCGUUUUGGGCACUUUTT against ATP2B3	inactive: 0.0848
GCACUAAUGGAAAUUAUGATT against PEX6	inactive: -0.281
CGCGAGAACUUCUACCAAATT against TNC	inactive: -0.253
GCUCAUCGAGAUGAUAUAUTT against SCN3B	inactive: 0
GAGAAAUAUGUAUACAGUATT against ZMAT3	inactive: 0.979
AGCAGAUUCUGACGCAGUATT against UCK1	inactive: -0.599
GAGGCAACAUGAGUGAGAATT against ZNF768	inactive: 0.169
GGCUCUUGGAAUAACUGAATT against SERPINI1	inactive: 0.127
GUACUUACCUUAUUCGACATT against ZNF287	inactive: 0.0213
GGAUAUAUUUGAGACCCGUTT against MSTN	inactive: -0.639
GACUCACAAGAAACCUAUATT against OSMR	inactive: 0.548
GCAGAAUUCUGACGAUGAUTT against LEO1	active: 1.2
CCAACCUGCUGGUUGUUCATT against ZNF628	inactive: -0.121
CAGUCGCUGGUGUGACAAATT against DDX3X	inactive: 0.0136
GGUCAGUGCGGAUAACUAUTT against IL4R	inactive: 0
CACUAUUUCGAACGAAAAATT against ST6GALNAC2	inactive: 0
CCUCAAUCCUUGUCUGGUATT against FEV	inactive: 0.174
CCAUAGCCCAAAUCAAGGATT against SIK2	inactive: 0.055

Sequence	median seed-adjusted z-score
CUUCAUCCGUGAGAUCAGATT against RASEF	inactive: 0.299
AGAUGUCCAAUUUGAUGAATT against ATP6V1E1	inactive: -0.312
GCACCUCCACGGUUCAGAATT against RS1	inactive: -0.684
CAUUUAGUGUACAUUCAAATT against ZNF665	active: 1.13
CUGAGACCCUGUUGACUGATT against PGS1	active: 1.36
AGACUUUCAUGAUCGACGATT against BARX2	inactive: -0.206
GGAUUAUGCAAUCUCCAAATT against ZNF783	inactive: 0.284
CACCAGACCUAGUCUUUAATT against NR3C2	inactive: -0.0918
GGAUCAGCUGUGAAGAGUATT against RGS4	inactive: 0
GAGAUUUACCGCAUUGUUUTT against RAB11A	inactive: -0.0554
GAGCAUUGGUUGCAUCUUUTT against CDK3	inactive: 0.000485
GCAUUGGAAGUGAAAACAATT against FCAMR	inactive: 0.137
CAUUCGCAAAGGAUCGUGATT against PAPSS2	inactive: -0.201
CAUGUGCUAUCGAAAGUAUTT against TCEB1	active: 1.08
UAGCUACUUCGAUUCUUUUTT against PLA2G12B	inactive: -0.162
GUAUGGUGAUGAUCGAAUUTT against KIFAP3	inactive: 0.403
GGUGGAAAACGGCAAAGUUTT against B3GAT2	inactive: 0.33
GCGUAUGGGAUUACAAGAATT against PAFAH1B1	inactive: 0.391
CAGCCUACCUGGUUGUAGATT against VARS2	inactive: 0.288
GAGCUUCUGUUGAACGGCATT against POLR3C	inactive: -0.294
GGAUCUUCGUGAAGUAUUUTT against TRA2A	inactive: -0.187
AGACAUUACUUCCAAAACATT against GALNTL2	inactive: 0.164

Sequence	median seed-adjusted z-score
AGCUCAACGUGCUGGAUUATT against PIP5KL1	inactive: -0.819
AGAAUUCUUCGAUCACAAATT against KCNMB3	inactive: 0.513
CGAGCUAGUUGAUGACCAUTT against TSEN2	inactive: 0
GGAACCUAAUUAUCUGCAUTT against KMO	inactive: 0.443
GGUGCAGAUUGAUCAGAUUTT against PLSCR3	inactive: 0
CGUCGUGACUUGAGGAUAATT against DYNC1H1	inactive: 0
CAGCCUACUUCAUAGCCUATT against GPR50	inactive: -0.0348
CCGACGUGGUGGUAUACAATT against HDAC11	inactive: 0.259
UGAGAAUUGUGGAUCCGGATT against CSTF2	inactive: 0.586
CCACCUACACUGUCCGUGUTT against COL20A1	inactive: -0.0033
GAUACAGUCUACGCAGUUATT against ATPAF1	inactive: 0.393
CUCUUUGACGUGUCUCAUATT against AMT	inactive: -0.506
GCUAAACAUUGGAUACAUATT against SERPINB2	inactive: -0.0739
GGUCAAACAAUGUCGCUUUTT against COPB2	inactive: -0.61
GCAAAUACCCAACCCUCAATT against TXNDC4	inactive: 0.351
GCUAUAAACUUAUUAGGCATT against ZNF180	inactive: 0
GCAUUUGUCUGUUUGAUAUTT against POLR3H	inactive: 0
GACCGUCACCAUUAAGGAATT against CBX8	inactive: -0.207
GGAAAAUGAAUUCAGAGGATT against DIABLO	inactive: 0.913
ACACUGAUCUGACUACCAUTT against LRRC15	inactive: -0.723
GUACUUCCUCAAUCACAUATT against WWTR1	inactive: -0.579
CCUACCAUCUUGGAUAGAATT against RAB33B	inactive: -0.758

Sequence	median seed-adjusted z-score
GAAGGAGUAUUCGUGAUUATT against DIS3L	inactive: 0
GGACAUCGCACUGAUCUUUTT against PIGK	inactive: -0.456
GGAACGAAGAGAACUAGAATT against OFD1	inactive: 0
GGUUGACAGUUACCGAAUUTT against ACACB	inactive: 0.31
GAAGCAAGAAGUUCGGGAATT against CETN1	inactive: 0.236
GGAUGCUCCGGACCUGUUATT against PRODH2	inactive: 0.817
AGACUCAGAUCAUGCUGAATT against KLRC3	inactive: 0.833
CCAUCCAUACAUUAGGUUUTT against MMP27	inactive: -0.084
GGAUCACUCAUACUAGGGATT against ZNF473	inactive: -0.166
GCACGACUUUCACCACGUATT against RAX	inactive: -0.176
CCUUGUGCCUUGCAACUCUTT against LPAR4	inactive: -0.321
GGGACUUGCUGAUUCAAGATT against GIP	inactive: 0
CGAUGUCAGUAGGAACCUUTT against PSMC1	active: -2.23
GCAUUUCUCCUGUUUGACATT against MYL1	inactive: 0.24
CCAAGAAACUGCGAGACAATT against CNGA2	inactive: -0.0447
GGAGAAUACCCUCCAGGAATT against CNOT7	inactive: 0.716
GCAAGAUCAUCGCAGAGAATT against TOR1A	inactive: -0.231
GCACCCAACCUGUCCAUCATT against PRPF31	inactive: -0.592
GGAUAUUGGUCAGCGGCAATT against SPTB	inactive: 0.153
GCUUGUUACUGAACUUCGATT against HACE1	inactive: 0

Individual results from the entries so far:
median seed-adjusted z-score with CCUUGUGCCUUGCAACUCUTT against LPAR4 is entered as inactive: -0.321
median seed-adjusted z-score with AGACUCAGAUCAUGCUGAATT against KLRC3 is entered as inactive: 0.833

— PubChem BioAssay AID1347426 (Functional Genomics Laboratory (NCATS/FGL), 2020)
